# Source: PubChem BioAssay AID1259415 (National Center for Advancing Translational Sciences (NCATS), 2018)
# Hit rate of the full screen: of about 410,000 compounds, about 18,000 (4.4%) were called active. Inconclusive results, whose numbers are uncertain, are shown with a selection of clear calls. No stated cut-off is given here; in the data, active means activity change below about -60%; inconclusive means no clear call, values can overlap the other calls; inactive means above about -39%.
# Experiment: qHTS Assay for inhibitors of the human cytomegalovirus (HCMV)
# Conditions: HFF cells, HCMV-luciferase reporter, 72 h; at 57.5 µM; stronger effect = lower value
# Outline: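 HFF cells seeded 16 h at 37C, treated with compounds, infected with luciferase-reporter HCMV at MOI 1 PFU/cell; luciferase read at 72 h post infection, normalized to buffer-only and Salinomycin controls.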
# On the % scale 0 is the no-effect control and ±100 the full control effect.
row,SMILES,"activity change, negative = inhibition"
1,CCOC(=O)N(C)C[C@H]1OCc2cnnn2CCCC(=O)N([C@H](C)CO)C[C@H]1C,inactive: -13.1%
2,Cc1ccc(NC(=O)O/N=C/c2ccc(Br)cc2)cc1,inconclusive: -42.7%
3,CN(C)C(=O)c1cnc(-c2ccccc2)nc1-c1ccccc1,active: -62.2%
4,COc1cccc(/C=C/C(=O)c2ccc(NS(=O)(=O)c3ccc(C)cc3)cc2)c1,active: -69.9%
5,O=[N+]([O-])c1cccc2nc3ccccc3c(NCCCn3ccnc3[N+](=O)[O-])c12,active: -97.2%
6,COc1ccc([N+](=O)[O-])cc1NC(=O)C(C)c1ccccc1 (centres undefined),inactive: 7.87%
7,CCN1CCN(S(=O)(=O)c2ccc(C(=O)Nc3ccccc3)cc2)CC1,inconclusive: -41.7%
8,CCOc1cccc(NC(=O)C2CC(=O)N(C)C(=Nc3cccc(OC)c3)S2)c1 (centres undefined),inactive: -2.39%
9,CCc1cc(C(=O)NC2CCCc3c2cnn3-c2cccc(C)c2C)n(C)n1 (centres undefined),active: -85.9%
10,Cc1cc(C)nc(/N=C(\N)Nc2ccc(F)c([N+](=O)[O-])c2)n1,inconclusive: -52.8%
11,CCOc1ccccc1CN1[C@@H](c2ccc(OC)cc2)CC(C(=O)OC)(C(=O)OC)[C@H]1c1ccccc1,inconclusive: -50.8%
12,Cc1cc(Oc2ccc(=O)[nH]n2)nc(Cl)n1,inconclusive: -41.5%
13,N=c1oc2cc(O)ccc2cc1C(=O)Nc1ccc(Cl)cc1,inactive: -9.06%
14,CCc1c(C)nc(SCC(N)=O)c(C#N)c1C,active: -63.9%
15,Cc1ccccc1S(=O)(=O)N(CC(O)CN1C(=O)NC(C)(C)C1=O)c1ccccc1 (centres undefined),inconclusive: -51.4%
16,O=C1NC(=O)N(Cc2ccco2)C(=O)/C1=C\c1cccn1CCOc1ccccc1,inconclusive: -50.4%
17,Cc1nc2ccc(Oc3ccccc3)cc2s1,inactive: 57.7%
18,CN(C(=O)c1cccc(NC(=O)Cc2cccc(NC(=O)C3CCN(C(=O)C4CCCC4)CC3)c2)c1)C1CC1,inactive: 0.387%
19,CN(C)c1ccc(Nc2cc(Cl)ncn2)cc1,inactive: 43.2%
20,C=C(C)COc1ccc2c(CC)cc(=O)oc2c1,inconclusive: -60%
21,COc1cccc(CNc2nc3nc4c(c(=O)n3[nH]2)CCC4)c1,inconclusive: -58.1%
22,Cc1c(C(=O)NCCc2ccc(S(N)(=O)=O)cc2)cccc1[N+](=O)[O-],inconclusive: -48.3%
23,COc1ccc(C(C)=O)cc1CSc1nnnn1-c1ccc(O)cc1,inactive: -30.6%
24,COc1ccc(S(=O)(=O)Nc2cccc3c2O[C@H](CN(C)CC2CCCCC2)[C@@H](C)CN([C@H](C)CO)C3=O)cc1,inconclusive: -45.3%
25,CC1=C(C(=O)N(C(C)C)C(C)C)CC(CC(=O)NC(c2ccccc2)c2ccccc2)C(=O)N1CCC1=CCCCC1 (centres undefined),active: -110%
26,Cc1nc(C)c(-c2ccc(SCC(=O)Nc3cccc(F)c3)nn2)s1,inconclusive: -57%
27,O=C(CSCc1ccco1)Nc1cc(C(F)(F)F)ccc1N1CCOCC1,inconclusive: -51.6%

row,SMILES,"activity change, negative = inhibition"
1,COC(=O)c1ccc(C)c(NS(=O)(=O)c2ccc(OC)cc2)c1,active: -91.2%
2,Cc1[nH][nH]c(=O)c1C(c1ccc(O)c(Br)c1)c1c(C)[nH][nH]c1=O,inconclusive: -41.3%
3,Cc1cc2ccccc2nc1SCC(=O)NC1CCCCC1,inconclusive: -44.9%
4,Cc1ccc([C@@H]2CC(=O)[C@@H]3CN(S(=O)(=O)c4ccccc4C)[C@H](c4ccc(Cl)cc4)C[C@@H]3N2S(=O)(=O)c2ccc(C)cc2)cc1,active: -93.8%
5,Cc1[nH]ccc2c1[nH]c1cc(=O)ccc12,inconclusive: -58.4%
6,CC[C@@]1(C(=O)OC)N[C@H](CN(C)C(=O)COC)[C@@H]2C(=O)N(C)C(=O)[C@@H]21,inactive: 9.99%
7,Cc1ccc(CN(Cc2cc3cccc(C)c3[nH]c2=O)C(=S)NCCCN(C)C)cc1,inconclusive: -51.2%
8,Cc1noc(C)c1S(=O)(=O)N1CCN(c2ccc(Cl)cc2)CC1,inconclusive: -46.3%
9,Cc1ccc(C(=O)Nc2ccc(F)cc2)cc1S(=O)(=O)N1CCCCCC1,active: -101%
10,O=C1CNC(=S)N1C(CO)c1ccccc1 (centres undefined),inconclusive: -56.9%
11,O=C(NCCCc1nc2ccccc2n1Cc1ccc(F)cc1)C1CCCCC1,inactive: -5.59%
12,CNc1cc(Cl)nc(SC)n1,inconclusive: -43.4%
13,COc1ccc(-c2cc3nc(N)cc(=O)n3[nH]2)cc1,inconclusive: -52.9%
14,CN(C)c1ccc(/C=N\Nc2ccccn2)cc1,inactive: 15.3%
15,O=C(Cc1cccc(C(F)(F)F)c1)NCc1cccc(Cl)c1,inconclusive: -49%
16,Cc1ccc(S(=O)(=O)N2CN(Cc3ccco3)c3nc4ccccc4nc32)cc1,inconclusive: -46.2%
17,COCCCNC(=O)CN1C(=O)COc2ccc(S(=O)(=O)N3CC(C)CC(C)C3)cc21 (centres undefined),inconclusive: -51.4%
18,COc1ccc(-c2csc(NC(=O)CCS(=O)(=O)c3ccccc3)n2)c(OC)c1,inconclusive: -44.7%
19,CCOC(=O)c1c(C)n(-c2ccc(C)cc2)c2ccc(OCC(O)CN3CCN(C)CC3)cc12 (centres undefined),inconclusive: -52.9%
20,Cn1c(CN2CCN(S(C)(=O)=O)CC2)nc2cc([N+](=O)[O-])ccc21,active: -101%
21,CCCCNC(=O)C(NC(=O)c1ccc(C(F)(F)F)cc1)C(=O)c1ccccc1 (centres undefined),inactive: 16.8%
22,CCCOc1c(Br)cc(C(N)=O)cc1OCC,inconclusive: -49%
23,Cc1ccc2[nH]c(=O)c(CN(CCCN(C)C)C(=S)NCCc3ccccc3)cc2c1,inconclusive: -55%
24,COc1cccc(NC(=O)CSc2nc3ccccc3c3nc4ccccc4n23)c1,inconclusive: -47.5%
25,CCc1ccc2c(c1)c(=O)c(C(=O)c1ccccc1)cn2CC(=O)Nc1ccc(C)c(Cl)c1,active: -68.6%
26,CC(C)C(=O)Nc1ccc2c(c1)nc1n2CCSC1,inconclusive: -43.8%
27,COc1ccc(N(C(=O)Cn2nnc(-c3ccccc3F)n2)C(C(=O)NCC2CCCO2)c2ccc(Cl)cc2)cc1 (centres undefined),inconclusive: -43.8%

# A different layout for some results above:
row | SMILES | activity change, negative = inhibition
15 | O=C(Cc1cccc(C(F)(F)F)c1)NCc1cccc(Cl)c1 | inconclusive: -49%
27 | COc1ccc(N(C(=O)Cn2nnc(-c3ccccc3F)n2)C(C(=O)NCC2CCCO2)c2ccc(Cl)cc2)cc1 (centres undefined) | inconclusive: -43.8%
